Record: PubChem BioAssay AID1259254 (NCATS, 2017)

Assay: 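Gene knock-downs that lead to re-replication, shown by excess G2 DNA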 (primary screen)
System: human HCT116 colorectal cancer cells
Reagent: single siRNA against human genes
Timing: 3 days
Detection: 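Nuclei stained with Hoechst and imaged; cell-cycle phase assigned by DNA content; G2 share scaled per plate, non-targeting siRNA 0%, GMNN siRNA 100%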
Scale: G2 robust z-score: higher = more G2 cells, more excess DNA replication
Active means: 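An siRNA counts as active if its G2 robust z-score lies at least 5 MADs above the screen median; here such calls match roughly 38% of GMNN control or more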
In all, the deposit lists about 59,000 reagents; shown is a random part of them. About 1,550 of all reagents (2.6%) were called active. 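G2 share is only a proxy for re-replication; each gene was hit by three separate siRNAs, and active genes were retested.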 Unmarked entries are inactive. Reagents against one gene are numbered here. Not all columns of the deposit are shown. Not given: the amount of reagent.

What is on record for TIMM10 #1?
G2 robust z-score: -1.09

What is on record for TIMM10 #2?
G2 robust z-score: 3.36

For TIMM10 #3, what was measured?
G2 robust z-score: 2.54

What is on record for PRIM2 #1?
G2 robust z-score: 0.0758

For PRIM2 #2, how do the results read?
G2 robust z-score: 2.25

How did the screen score PRIM2 #3?
G2 robust z-score: -1.18

What is on record for SCAMP5 #1?
G2 robust z-score: -0.158

Which result is listed for SCAMP5 #2?
G2 robust z-score: -0.273

For SCAMP5 #3, how do the results read?
G2 robust z-score: 0.349

How did the screen score TRPA1 #1?
G2 robust z-score: -0.441

How did the screen score TRPA1 #2?
G2 robust z-score: 1.54

How did the screen score TRPA1 #3?
G2 robust z-score: -1.05

For RTTN #1, what does the deposit list?
G2 robust z-score: -0.807

With RTTN #2, how do the results read?
G2 robust z-score: -0.663

With RTTN #3, what was measured?
G2 robust z-score: -0.282

What did the screen give for RBP7 #1?
G2 robust z-score: -0.192

With RBP7 #2, what does the deposit list?
G2 robust z-score: -1.07

How did the screen score RBP7 #3?
G2 robust z-score: -0.182

What is on record for ELOVL5 #1?
G2 robust z-score: 1.93

What did the screen give for ELOVL5 #2?
G2 robust z-score: 0.363

With ELOVL5 #3, how do the results read?
G2 robust z-score: 0.123

What is on record for GPA33 #1?
G2 robust z-score: -0.722

For GPA33 #2, how do the results read?
G2 robust z-score: -1.44

What is on record for GPA33 #3?
G2 robust z-score: 2.01

Part of the list above, set out differently.
gene symbol	reagent	G2 robust z-score
PRIM2	3	-1.18
SCAMP5	1	-0.158
